Data: patent US20230071283A1, “COMPOSITIONS AND METHODS FOR SELECTIVE PROTEIN EXPRESSION” (Novartis AG, priority 2017, published 2023)
At least one compound was matched to its structure with a doubt left.

System: CD19+ NALM6 tumor cells
Test: NALM6 luciferase xenograft in NSG mice treated with CART19 or FurON CART19
Type: in vivo
Settings: BZA without CAR T cells, same dose and dose regimen; data unshown

SMILES: Cc1c(-c2ccc(O)cc2)n(Cc2ccc(OCCN3CCCCCC3)cc2)c2ccc(O)cc12 [Bazedoxifene]
- growth of NALM6 tumor cells: no effect on the growth of NALM6 tumor cells
